{"source": "paper PMC3813627", "molecular_target": "cytosine monophosphate kinase (CMPK) from E. coli, wild type with attached His-tag (E. coli) (UniProt P0A6I0)", "assay": "SEC; analytical gel filtration of purified His-tagged wild-type CMPK; low salt concentrations; both purified", "note": "No constants are given. Whether binding was seen depends on the method and setting. Tags and fused reporters may be left off the sequences shown."}
{"binder": "cytosine monophosphate kinase (CMPK) from E. coli, wild type with attached His-tag (enzyme, UniProt P0A6I0 1-227) MTAIAPVITIDGPSGAGKGTLCKAMAEALQWHLLDSGAIYRVLALAALHHHVDVASEDALVPLASHLDVRFVSTNGNLEVILEGEDVSGEIRTQEVANAASQVAAFPRVREALLRRQRAFRELPGLIADGRDMGTVVFPDAPVKIFLDASSEERAHRRMLQLQEKGFSVNFERLLAEIKERDDRDRNRAVAPLVPAADALVLDSTTLSIEQVIEKALQYARQKLALA", "values": [{"measurement": "binding", "result": "no binding"}]}
